Values from PubChem BioAssay AID686937 (Drosophila RNAi Screening Center, 2013).

Screen: 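Knock-downs that reduce output of a secreted reporter enzyme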 (primary screen)
Cell system: Drosophila S2 cells expressing secreted horseradish peroxidase
Reagent: long dsRNA against Drosophila genes
Timing: about 5.5 days (5 days dsRNA, then 12 h reporter induction)
Challenge: reporter expression induced after 5 days of dsRNA, read 12 h later; inducer not stated
Read-out: 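Chemiluminescent measurement of peroxidase in the medium 12 h after reporter induction, following 5 days of dsRNA, given as a z-score per plate; higher means more secretion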
Direction: z-score: higher = more reporter secreted into medium
In all, the deposit lists about 23,000 reagents; shown is a random part of those with a known target gene and a result. 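Reduced-secretion tags in replicate 1 do not always agree with the z-scores; no criterion for assigning the tags was given.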 Reagents against one gene are numbered here. A plus sign joins genes that one reagent is predicted to hit. The record does not give: the amount of reagent.

Gene | dsRNA no. | z-score, replicate 1 | z-score, replicate 2 | z-score, replicate 3 | z-score, replicate 4 | phenotype, replicate 1
CG12164 | 1 | 0.14 | 0.23 | – | – | –
CG12164 | 2 | -0.48 | -0.56 | – | – | –
sgll | 1 | -0.08 | 0.24 | – | – | –
GluRIIB | 1 | -0.68 | -0.18 | – | – | –
CG43052 | 1 | 0.53 | 0.31 | – | – | –
viaf | 1 | -0.09 | -0.04 | – | – | –
Gr23a | 1 | 0.38 | 0.31 | – | – | –
sty | 1 | 0.8 | 0.52 | – | – | –
Rbbp5 + CG6434 (retired record) | 1 | 0.29 | 0.14 | – | – | –
Dic3 | 1 | 0.43 | 0.54 | – | – | –
CR12798 | 1 | 0.33 | 0.28 | – | – | –
Rbp | 1 | -2.86 | -2.77 | – | – | reduced secretion
Rbp | 2 | -0.23 | -0.47 | – | – | –
CG8323 | 1 | 0.32 | -0.02 | – | – | –
CG7179 | 1 | 0.67 | 0.41 | – | – | –
CG17266 | 1 | 0.25 | 0.57 | – | – | –
CG17266 | 2 | 0.3 | 0.43 | – | – | –
snoRNA:Me28S-C3420b + RpS11 | 1 | 0.27 | 0.2 | – | – | –
CG1951 | 1 | 0.13 | 0.53 | – | – | –
St3 | 1 | 0.56 | 0.42 | – | – | –
St3 | 2 | 0.2 | 0.11 | – | – | –

Not a retest: entries from further up.
Gene | dsRNA no. | z-score, replicate 1 | z-score, replicate 2 | z-score, replicate 3 | z-score, replicate 4 | phenotype, replicate 1
Gr23a | 1 | 0.38 | 0.31 | – | – | –
sty | 1 | 0.8 | 0.52 | – | – | –
Rbbp5 + CG6434 (retired record) | 1 | 0.29 | 0.14 | – | – | –
Dic3 | 1 | 0.43 | 0.54 | – | – | –

The results go on:
Gene | dsRNA no. | z-score, replicate 1 | z-score, replicate 2 | z-score, replicate 3 | z-score, replicate 4 | phenotype, replicate 1
Mat1 | 1 | -0.69 | -0.63 | – | – | –
tth | 1 | 0.72 | 0.34 | – | – | –
CG13801 | 1 | 0.27 | 0.34 | – | – | –
vig | 1 | 0.5 | 0.75 | 0.33 | 0.23 | –
vig | 2 | 0.48 | 0.38 | – | – | –
vig | 3 | 0.06 | -0.2 | – | – | –
Nha1 | 1 | 0.27 | 0.43 | – | – | –
Dcr-1 | 1 | 0.05 | 0.16 | – | – | –
CG17819 | 1 | 0.02 | -0.32 | – | – | –
Uxt | 1 | -0.18 | -0.09 | – | – | –
CG15107 | 1 | -0.02 | 0.47 | – | – | –
Adgf-D | 1 | 0.08 | 0.24 | – | – | –
